Source: patent US9018256B2, “Feed additive for animals of P-thymol, salt derivative or ester derivative thereof” (priority 2011, dated 2015)
Some results were stated once for a whole list of compounds, not compound by compound.

Assay: Changes in chicken complete formula feed during preservation (gas chromatography)
Conditions: placed for 2 months

In the case of Cc1ccc(C(C)C)cc1O [carvacrol, 2-methyl-5-isopropyl-phenol], the “loss in complete formula feed” value is reported as “exceeds 50%”.
